{"source": "the supplement of paper PMC8728848", "experiment_in_all_cases": "glycan array binding signal (z-score within array); higher = stronger binding", "details_in_all_cases": "glycan notation: IUPAC condensed, linker removed", "key": {"[1]": {"target": "Gal(b1-4)GlcNAc(b1-3)Gal(b1-4)GlcNAc(b1-3)Gal(b1-4)GlcNAc(b1-3)Gal(b1-4)GlcNAc(b1-2)Man(a1-3)[Gal(b1-4)GlcNAc(b1-3)Gal(b1-4)GlcNAc(b1-3)Gal(b1-4)GlcNAc(b1-3)Gal(b1-4)GlcNAc(b1-2)Man(a1-6)]Man(b1-4)GlcNAc(b1-4)[Fuc(a1-6)]GlcNAc", "method_in_brief": "(§1)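 From the Consortium for Functional Glycomics database, 3228 arrays were curated, keeping only those whose protein sequence was available. Binding is given as a within-array Z-score averaged across arrays sharing a protein sequence and across linkers. Negative Z-scores can be read as non-binding.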"}, "[2]": {"target": "Gal(b1-4)GlcNAc(b1-3)Gal(b1-4)GlcNAc(b1-3)Gal(b1-4)GlcNAc(b1-3)Gal(b1-4)GlcNAc(b1-2)[Gal(b1-4)GlcNAc(b1-3)Gal(b1-4)GlcNAc(b1-3)Gal(b1-4)GlcNAc(b1-3)Gal(b1-4)GlcNAc(b1-6)]Man(a1-6)[Gal(b1-4)GlcNAc(b1-3)Gal(b1-4)GlcNAc(b1-3)Gal(b1-4)GlcNAc(b1-3)Gal(b1-4)GlcNAc(b1-2)Man(a1-3)]Man(b1-4)GlcNAc(b1-4)[Fuc(a1-6)]GlcNAc", "method_in_brief": "as §1"}, "[3]": {"target": "Gal(b1-4)GlcNAc(b1-3)Gal(b1-4)GlcNAc(b1-3)Gal(b1-4)GlcNAc(b1-3)Gal(b1-4)GlcNAc(b1-3)Gal(b1-4)GlcNAc(b1-2)Man(a1-3)[Gal(b1-4)GlcNAc(b1-3)Gal(b1-4)GlcNAc(b1-3)Gal(b1-4)GlcNAc(b1-3)Gal(b1-4)GlcNAc(b1-3)Gal(b1-4)GlcNAc(b1-2)Man(a1-6)]Man(b1-4)GlcNAc(b1-4)GlcNAc", "method_in_brief": "as §1"}, "[4]": {"target": "Gal(b1-4)GlcNAc(b1-3)Gal(b1-4)GlcNAc(b1-3)Gal(b1-4)GlcNAc(b1-3)Gal(b1-4)GlcNAc(b1-3)Gal(b1-4)GlcNAc(b1-2)Man(a1-3)[Gal(b1-4)GlcNAc(b1-3)Gal(b1-4)GlcNAc(b1-3)Gal(b1-4)GlcNAc(b1-3)Gal(b1-4)GlcNAc(b1-3)Gal(b1-4)GlcNAc(b1-2)Man(a1-6)]Man(b1-4)GlcNAc(b1-4)[Fuc(a1-6)]GlcNAc", "method_in_brief": "as §1"}, "[5]": {"target": "Gal(b1-4)GlcNAc(b1-3)Gal(b1-4)GlcNAc(b1-3)Gal(b1-4)GlcNAc(b1-3)Gal(b1-4)GlcNAc(b1-3)Gal(b1-4)GlcNAc(b1-2)[Gal(b1-4)GlcNAc(b1-3)Gal(b1-4)GlcNAc(b1-3)Gal(b1-4)GlcNAc(b1-3)Gal(b1-4)GlcNAc(b1-3)Gal(b1-4)GlcNAc(b1-6)]Man(a1-6)[Gal(b1-4)GlcNAc(b1-3)Gal(b1-4)GlcNAc(b1-3)Gal(b1-4)GlcNAc(b1-3)Gal(b1-4)GlcNAc(b1-3)Gal(b1-4)GlcNAc(b1-2)Man(a1-3)]Man(b1-4)GlcNAc(b1-4)[Fuc(a1-6)]GlcNAc", "method_in_brief": "as §1"}, "[6]": {"target": "Gal(b1-4)GlcNAc(b1-3)Gal(b1-4)GlcNAc(b1-3)Gal(b1-4)GlcNAc(b1-3)Gal(b1-4)GlcNAc(b1-3)Gal(b1-4)GlcNAc(b1-3)Gal(b1-4)GlcNAc(b1-2)Man(a1-3)[Gal(b1-4)GlcNAc(b1-3)Gal(b1-4)GlcNAc(b1-3)Gal(b1-4)GlcNAc(b1-3)Gal(b1-4)GlcNAc(b1-3)Gal(b1-4)GlcNAc(b1-3)Gal(b1-4)GlcNAc(b1-2)Man(a1-6)]Man(b1-4)GlcNAc(b1-4)GlcNAc", "method_in_brief": "as §1"}, "[7]": {"target": "Gal(b1-4)GlcNAc(b1-3)Gal(b1-4)GlcNAc(b1-3)GalNAc", "method_in_brief": "as §1"}, "[8]": {"target": "Gal(b1-4)GlcNAc(b1-3)Gal(b1-4)GlcNAc(b1-3)[Gal(b1-4)GlcNAc(b1-3)Gal(b1-4)GlcNAc(b1-6)]GalNAc", "method_in_brief": "as §1"}, "[9]": {"target": "Gal(b1-4)GlcNAc(b1-3)Gal(b1-4)GlcNAc(b1-6)[Gal(b1-3)]GalNAc", "method_in_brief": "as §1"}, "[10]": {"target": "Gal(b1-4)GlcNAc(b1-3)Gal(b1-4)[Fuc(a1-3)]GlcNAc(b1-3)Gal(b1-4)[Fuc(a1-3)]GlcNAc", "method_in_brief": "as §1"}, "[11]": {"target": "Gal(b1-4)GlcNAc(b1-3)GalNAc", "method_in_brief": "as §1"}, "[12]": {"target": "Gal(b1-4)GlcNAc(b1-3)[Fuc(a1-3)GlcNAc(b1-6)]Gal(b1-4)Glc", "method_in_brief": "as §1"}, "[13]": {"target": "Gal(b1-4)GlcNAc(b1-3)[Gal(b1-4)GlcNAc(b1-6)]Gal(b1-4)GlcNAc", "method_in_brief": "as §1"}, "[14]": {"target": "Gal(b1-4)GlcNAc(b1-3)[GlcNAc(b1-6)]Gal(b1-4)GlcNAc", "method_in_brief": "as §1"}, "[15]": {"target": "Gal(b1-4)GlcNAc(b1-6)Gal(b1-4)GlcNAc", "method_in_brief": "as §1"}, "[16]": {"target": "Gal(b1-4)GlcNAc(b1-6)GalNAc", "method_in_brief": "as §1"}, "[17]": {"target": "Gal(b1-4)GlcNAc(b1-6)[Gal(b1-3)]GalNAc", "method_in_brief": "as §1"}, "[18]": {"target": "Gal(b1-4)GlcNAc(b1-6)[Gal(b1-4)GlcNAc(b1-3)]GalNAc", "method_in_brief": "as §1"}, "[19]": {"target": "Gal(b1-4)GlcNAc6P", "method_in_brief": "as §1"}, "[20]": {"target": "Gal(b1-6)Gal", "method_in_brief": "as §1"}, "[21]": {"target": "Gal3S(b1-3)GalNAc", "method_in_brief": "as §1"}, "[22]": {"target": "Gal3S(b1-3)GlcNAc", "method_in_brief": "as §1"}, "[23]": {"target": "Gal3S(b1-3)[Fuc(a1-4)]GlcNAc", "method_in_brief": "as §1"}, "[24]": {"target": "Gal3S(b1-4)Glc", "method_in_brief": "as §1"}, "[25]": {"target": "Gal3S(b1-4)Glc6S", "method_in_brief": "as §1"}, "[26]": {"target": "Gal3S(b1-4)GlcNAc", "method_in_brief": "as §1"}, "[27]": {"target": "Gal3S(b1-4)[Fuc(a1-3)]Glc6S", "method_in_brief": "as §1"}, "[28]": {"target": "Gal3S(b1-4)[Fuc(a1-3)]GlcNAc", "method_in_brief": "as §1"}, "[29]": {"target": "Gal3S(b1-4)[Fuc(a1-3)]GlcNAc6S", "method_in_brief": "as §1"}, "[30]": {"target": "Gal3S4S(b1-4)GlcNAc", "method_in_brief": "as §1"}, "[31]": {"target": "Gal3S6S(b1-4)GlcNAc", "method_in_brief": "as §1"}, "[32]": {"target": "Gal3S6S(b1-4)GlcNAc6S", "method_in_brief": "as §1"}, "[33]": {"target": "Gal4S(b1-4)GlcNAc", "method_in_brief": "as §1"}, "[34]": {"target": "Gal4S6S(b1-4)GlcNAc", "method_in_brief": "as §1"}, "[35]": {"target": "Gal6P(b1-4)GlcNAc", "method_in_brief": "as §1"}, "[36]": {"target": "Gal6S(b1-3)GlcNAc", "method_in_brief": "as §1"}, "[37]": {"target": "Gal6S(b1-3)GlcNAc6S", "method_in_brief": "as §1"}, "[38]": {"target": "Gal6S(b1-4)Glc", "method_in_brief": "as §1"}}, "note": "This is one part of the list."}
{"binder": "GS13599A-bth-520-23-520 (Bacteroides thetaiotaomicron) (protein) SEDTMDRINKDHDHTTSVASRFILADVITSTAFSNASGDINTYASSYIEYEVGVDNQLYYAEVRENEPSSSSTFNNSWNGIYSSLKNARIIIDQCGEGGRDHGNDVTRGMAEVMAAYNCALIADFFGDAPCSQAALVDEKGSPVYMTPKMDTQQEIYTQIISYLDDAIANLQKEDLADVTEQDFLYAGDADKWLKFAYGLKARYTMRLINRSSNKSADYEKVLDYVSKSFTSADDQAAFDIYDSNNINPFYGFYNSRAGFGASTSLGTKLLAYNDPRANRAFFTPIVDKKRSQVAANDPSLVPAPNGSPDQSTSKYGISAFVYAKTAPTLLMSYHELMFLKAEALCRLNRDAEDALKEAVVAGLLNAENSISIAIKELGSGLNTNSSEVITETSAGKYFDDVVKAKYAANPLQETMIQKYLAMWGASGEATETYNDFRRMKGLNENFITLTNPNNSSKFPLRYPYGNSDTAANPEVKAAYGNGDYVYSEPVWWAGGSR", "values": [{"measurement": "glycan array binding signal (z-score)", "setting": "[1]", "result": 2.46}, {"measurement": "glycan array binding signal (z-score)", "setting": "[2]", "result": 1.45}, {"measurement": "glycan array binding signal (z-score)", "setting": "[3]", "result": 3.9}, {"measurement": "glycan array binding signal (z-score)", "setting": "[4]", "result": 1.1}, {"measurement": "glycan array binding signal (z-score)", "setting": "[5]", "result": 7.02}, {"measurement": "glycan array binding signal (z-score)", "setting": "[6]", "result": 0.294}, {"measurement": "glycan array binding signal (z-score)", "setting": "[7]", "result": 0.643}, {"measurement": "glycan array binding signal (z-score)", "setting": "[8]", "result": 1.55}, {"measurement": "glycan array binding signal (z-score)", "setting": "[9]", "result": -0.028}, {"measurement": "glycan array binding signal (z-score)", "setting": "[10]", "result": -0.327}, {"measurement": "glycan array binding signal (z-score)", "setting": "[11]", "result": -0.547}, {"measurement": "glycan array binding signal (z-score)", "setting": "[12]", "result": -0.616}, {"measurement": "glycan array binding signal (z-score)", "setting": "[13]", "result": 2.22}, {"measurement": "glycan array binding signal (z-score)", "setting": "[14]", "result": -0.103}, {"measurement": "glycan array binding signal (z-score)", "setting": "[15]", "result": -0.338}, {"measurement": "glycan array binding signal (z-score)", "setting": "[16]", "result": 1.11}, {"measurement": "glycan array binding signal (z-score)", "setting": "[17]", "result": -0.003}, {"measurement": "glycan array binding signal (z-score)", "setting": "[18]", "result": -0.112}, {"measurement": "glycan array binding signal (z-score)", "setting": "[19]", "result": 1.51}, {"measurement": "glycan array binding signal (z-score)", "setting": "[20]", "result": 0.348}, {"measurement": "glycan array binding signal (z-score)", "setting": "[21]", "result": 1.89}, {"measurement": "glycan array binding signal (z-score)", "setting": "[22]", "result": -0.554}, {"measurement": "glycan array binding signal (z-score)", "setting": "[23]", "result": -0.068}, {"measurement": "glycan array binding signal (z-score)", "setting": "[24]", "result": 3.17}, {"measurement": "glycan array binding signal (z-score)", "setting": "[25]", "result": -0.259}, {"measurement": "glycan array binding signal (z-score)", "setting": "[26]", "result": -0.657}, {"measurement": "glycan array binding signal (z-score)", "setting": "[27]", "result": 0.291}, {"measurement": "glycan array binding signal (z-score)", "setting": "[28]", "result": 1.1}, {"measurement": "glycan array binding signal (z-score)", "setting": "[29]", "result": 0.538}, {"measurement": "glycan array binding signal (z-score)", "setting": "[30]", "result": 0.609}, {"measurement": "glycan array binding signal (z-score)", "setting": "[31]", "result": -0.466}, {"measurement": "glycan array binding signal (z-score)", "setting": "[32]", "result": 0.601}, {"measurement": "glycan array binding signal (z-score)", "setting": "[33]", "result": -0.548}, {"measurement": "glycan array binding signal (z-score)", "setting": "[34]", "result": -0.678}, {"measurement": "glycan array binding signal (z-score)", "setting": "[35]", "result": 0.146}, {"measurement": "glycan array binding signal (z-score)", "setting": "[36]", "result": -0.698}, {"measurement": "glycan array binding signal (z-score)", "setting": "[37]", "result": -0.094}, {"measurement": "glycan array binding signal (z-score)", "setting": "[38]", "result": -0.303}]}
